According to patent US20050096282A1, “Adeno-associated virus-delivered ribozyme compositions and methods for the treatment of retinal diseases” (priority 1997, published 2005):
At least one compound was matched to its structure with a doubt left.

Tests used:
Format in all cases: cell-based, human
HREC [1] = test: BrdU incorporation (DNA synthesis) in HRECs; conditions: agonists 10 μm, with NECA: CPX 20 nM, SCH 60 nM, XAC 10 μm, * p < 0.005 vs untreated
Description: (§1) The subtype of adenosine receptor (A2B) that mediates the proliferative effect of adenosine on HREC was determined by the following studies. […] In contrast, neither the A2A adenosine receptor agonist CGS21680 (2-p-(2-carboxyethyl) phenethylamino-5′-N-ethylcarboxamidoadenosine) at concentrations ranging from 10 nM to 10 μM, nor the A1 adenosine receptor agonist CPA (N^6-cyclopentyladenosine) at concentrations ranging from 10 nM to 10 μM increased BrdU incorporation by HRECs. […] In contrast, neither the selective A1 adenosine receptor antagonist CPX (8-cyclopentyl-1,3-dipropylxanthine) at 20 nM, nor the selective A2A adenosine receptor antagonist SCH58261 (5-amino-7-(2-phenylethyl)-2-(2-furyl)-pyrazolo(4,3-E)-1,2,4-trizolo(1,5-c) pyrimidine) at 60 nM attenuated the stimulatory effect of NECA on BrdU incorporation by HRECs. These findings indicate that the proliferative effects of NECA are mediated by the A2B adenosine receptor in HREC in culture (Table 3).

HREC [2] = test: cAMP content of intact HRECs; conditions: agonists 10 μm, with NECA: CPX 20 nM, SCH 60 nM, XAC 10 μm, * p < 0.005 vs untreated
Description: The cAMP content of intact HRECs following treatment with adenosine receptor agonists and antagonists was next examined. […] The effect of selective A1 and A2A adenosine receptor antagonists on NECA-induced accumulation of cAMP was also examined.

HREC [3] = test: HREC proliferation, cell count; conditions: agonists 10 μm, with NECA: CPX 20 nM, SCH 60 nM, XAC, Enprofylline, JW V108 10 μm, * p < 0.005 vs untreated
Description: as §1
The data for cell counts were consistent with those for BrdU incorporation. […] These compounds, like XAC, blocked the proliferative effects of NECA as measured by cell counts, supporting that the proliferative effects of NECA on HREC are mediated by the adenosine A2B receptor (Table 3).

HREC [4] = test: VEGF protein in HREC after adenosine receptor agonists and antagonists; conditions: agonists 10 μm, with NECA: CPX 20 nM, SCH 60 nM, XAC 10 μm, * p < 0.005 vs untreated
HREC [5] = test: VEGF mRNA in HREC after adenosine receptor agonists and antagonists; conditions: agonists 10 μm, with NECA: CPX 20 nM, SCH 60 nM, XAC 10 μm, * p < 0.005 vs untreated

SMILES: CCNC(=O)[C@H]1O[C@@H](n2cnc3c(N)ncnc32)[C@H](O)[C@@H]1O [NECA]
- Proliferation BrdU Incorporation (HREC [1]): 1.5* ± 0.05 fold change vs. untreated
- CAMP Content (HREC [2]): 11.6* ± 2.36 fold change vs. untreated
- Proliferation Cell Count (HREC [3]): 1.6* ± 0.03 fold change vs. untreated
- VEGF Protein (HREC [4]): 2.7* ± 0.31 fold change vs. untreated
- VEGF MRNA (HREC [5]): 4.2* ± 0.65 fold change vs. untreated
